Results: paper PMC8406326
Results are given in words; binding and its absence hold for the method and conditions named. In cells and extracts the contact can be indirect. Some binding calls cover weakened binding; strength is not graded here. For part of these data: Tags and fused reporters may be left off the sequences shown.

Sequences of proteins named here, by UniProt entry; tags and fusion partners are left off.
UniProt O08573: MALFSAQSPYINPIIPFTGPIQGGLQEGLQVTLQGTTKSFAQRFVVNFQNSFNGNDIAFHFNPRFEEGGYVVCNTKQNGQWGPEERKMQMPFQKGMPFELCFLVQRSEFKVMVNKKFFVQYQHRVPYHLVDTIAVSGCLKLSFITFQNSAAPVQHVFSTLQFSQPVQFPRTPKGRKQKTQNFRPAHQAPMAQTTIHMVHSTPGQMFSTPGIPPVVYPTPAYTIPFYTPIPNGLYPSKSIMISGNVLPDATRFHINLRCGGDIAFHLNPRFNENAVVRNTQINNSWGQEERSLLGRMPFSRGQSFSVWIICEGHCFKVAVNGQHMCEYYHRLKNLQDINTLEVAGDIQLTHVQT
UniProt P16110: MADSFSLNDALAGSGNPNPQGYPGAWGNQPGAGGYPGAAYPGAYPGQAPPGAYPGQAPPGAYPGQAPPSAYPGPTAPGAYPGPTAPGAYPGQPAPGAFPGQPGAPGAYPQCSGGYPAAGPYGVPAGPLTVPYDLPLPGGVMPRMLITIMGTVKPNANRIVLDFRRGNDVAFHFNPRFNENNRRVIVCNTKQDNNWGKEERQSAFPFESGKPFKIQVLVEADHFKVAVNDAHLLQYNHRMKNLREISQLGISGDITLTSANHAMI
UniProt Q8K3K8: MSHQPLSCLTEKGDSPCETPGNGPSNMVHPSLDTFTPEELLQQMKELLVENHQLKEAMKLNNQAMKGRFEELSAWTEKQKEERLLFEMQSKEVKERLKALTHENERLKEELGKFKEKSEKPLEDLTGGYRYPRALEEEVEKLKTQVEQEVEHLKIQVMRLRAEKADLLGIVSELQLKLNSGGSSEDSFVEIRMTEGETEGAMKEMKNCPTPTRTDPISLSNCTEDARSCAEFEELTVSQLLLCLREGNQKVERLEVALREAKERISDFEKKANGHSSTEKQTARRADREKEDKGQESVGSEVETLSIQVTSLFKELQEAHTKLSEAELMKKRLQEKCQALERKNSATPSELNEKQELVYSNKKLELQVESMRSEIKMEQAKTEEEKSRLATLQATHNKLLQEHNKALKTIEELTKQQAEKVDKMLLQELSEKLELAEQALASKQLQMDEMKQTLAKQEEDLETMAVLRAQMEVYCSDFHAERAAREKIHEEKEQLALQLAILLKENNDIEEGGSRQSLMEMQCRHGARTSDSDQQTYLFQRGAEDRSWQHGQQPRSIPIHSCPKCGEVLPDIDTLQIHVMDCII
UniProt O00560: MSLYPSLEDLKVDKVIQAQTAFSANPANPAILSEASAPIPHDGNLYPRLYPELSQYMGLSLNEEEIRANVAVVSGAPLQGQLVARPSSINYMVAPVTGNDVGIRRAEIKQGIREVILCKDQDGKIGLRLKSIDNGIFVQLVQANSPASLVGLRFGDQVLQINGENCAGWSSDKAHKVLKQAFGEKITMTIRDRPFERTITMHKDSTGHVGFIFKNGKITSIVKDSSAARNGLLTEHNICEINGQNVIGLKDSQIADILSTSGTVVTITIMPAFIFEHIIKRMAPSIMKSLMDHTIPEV

Experiments:
[1] = molecular target: 3×FLAG-galectin-9 (not stated (human or mouse cDNA cloned)) (UniProt O08573); assay: co-IP; directed co-IP: 3×FLAG-galectin and HA-tagged adapter (or TAX1BP1 truncation) coexpressed in HEK293T cells; IP of FL-galectin-8 and blot for HA in Fig. 5B, C, F (direction not told for Fig. 4E); lysis buffer 150 mM Tris pH 7.5, 50 mM NaCl, 1 mM EDTA, 0.075% NP-40; 4°C
[2] = molecular target: T1, mouse 3×FLAG–galectin-8 (ectopically expressed in HEK293T cells) (mouse) (UniProt Q9JL15); assay: co-IP; 3×FLAG-galectins ectopically expressed in HEK293T cells, immunoprecipitated; co-IPs probed for endogenous syntenin-1 and TAX1BP1; lysis buffer 150 mM Tris pH 7.5, 50 mM NaCl, 1 mM EDTA, 0.075% NP-40; 4°C
T1 sequence: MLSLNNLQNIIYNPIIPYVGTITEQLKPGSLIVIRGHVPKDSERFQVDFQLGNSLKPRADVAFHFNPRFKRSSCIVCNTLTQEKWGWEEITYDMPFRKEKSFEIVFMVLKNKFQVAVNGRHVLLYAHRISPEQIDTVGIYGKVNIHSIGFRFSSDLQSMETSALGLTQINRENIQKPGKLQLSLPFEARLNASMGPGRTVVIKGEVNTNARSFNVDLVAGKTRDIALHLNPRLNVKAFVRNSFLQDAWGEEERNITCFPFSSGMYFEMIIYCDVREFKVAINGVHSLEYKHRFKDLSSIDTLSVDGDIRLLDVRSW

[3] = molecular target: 3×FLAG-galectin-3 (not stated (human or mouse cDNA cloned)) (UniProt P16110); assay: as above

Substance | binding [1] | binding [2] | binding [3]
HA-optineurin (from UniProt Q8K3K8 1-584) | binds |  | 
endogenous syntenin-1 (HEK293T cells) (from UniProt O00560 1-298) |  | binds | binds
